Results as given in doi:10.1101/484709.
These are yes or no findings as the source states them, for the method shown. In cells and extracts the contact can be indirect. Some results given as binding are weak or reduced against the parent protein; the word gives no strength.

Sequences of proteins named here, by UniProt entry; tags and fusion partners are left off.
UniProt Q99558: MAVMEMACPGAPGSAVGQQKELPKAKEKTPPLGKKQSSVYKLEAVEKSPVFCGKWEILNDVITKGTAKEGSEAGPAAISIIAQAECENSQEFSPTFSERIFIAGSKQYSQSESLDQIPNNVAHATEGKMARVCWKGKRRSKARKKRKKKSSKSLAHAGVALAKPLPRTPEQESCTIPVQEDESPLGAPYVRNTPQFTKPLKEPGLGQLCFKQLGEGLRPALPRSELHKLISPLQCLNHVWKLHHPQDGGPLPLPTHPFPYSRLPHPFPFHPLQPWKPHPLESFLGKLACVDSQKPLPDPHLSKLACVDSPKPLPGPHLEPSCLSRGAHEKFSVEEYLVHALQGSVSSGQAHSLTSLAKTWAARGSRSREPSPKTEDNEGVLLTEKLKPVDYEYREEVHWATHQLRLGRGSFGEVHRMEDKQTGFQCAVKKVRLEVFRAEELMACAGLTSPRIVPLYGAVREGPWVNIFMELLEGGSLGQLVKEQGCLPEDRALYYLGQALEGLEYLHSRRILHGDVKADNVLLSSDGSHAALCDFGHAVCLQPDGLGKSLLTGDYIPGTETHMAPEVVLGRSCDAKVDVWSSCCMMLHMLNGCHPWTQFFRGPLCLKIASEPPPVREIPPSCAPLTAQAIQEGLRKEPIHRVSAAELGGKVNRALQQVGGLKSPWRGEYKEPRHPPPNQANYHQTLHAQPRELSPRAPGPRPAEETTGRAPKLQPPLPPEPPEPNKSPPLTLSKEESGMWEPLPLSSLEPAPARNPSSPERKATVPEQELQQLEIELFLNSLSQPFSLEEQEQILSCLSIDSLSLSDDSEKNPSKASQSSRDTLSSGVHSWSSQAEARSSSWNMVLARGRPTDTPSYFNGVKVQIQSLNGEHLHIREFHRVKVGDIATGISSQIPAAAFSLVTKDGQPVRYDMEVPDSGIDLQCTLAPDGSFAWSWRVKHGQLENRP

Molecular target: NF-kappa-B-inducing kinase (human (endogenous in Jurkat cells and PBMC)) (UniProt Q99558)
Assay: co-IP

binding: binds
B1: FK506-binding protein 51 (protein, UniProt Q13451 1-457)
chain: MTTDEGAKNNEESPTATVAEQGEDITSKKDRGVLKIVKRVGNGEETPMIGDKVYVHYKGKLSNGKKFDSSHDRNEPFVFSLGKGQVIKAWDIGVATMKKGEICHLLCKPEYAYGSAGSLPKIPSNATLFFEIELLDFKGEDLFEDGGIIRRTKRKGEGYSNPNEGATVEIHLEGRCGGRMFDCRDVAFTVGEGEDHDIPIGIDKALEKMQREEQCILYLGPRYGFGEAGKPKFGIEPNAELIYEVTLKSFEKAKESWEMDTKEKLEQAAIVKEKGTVYFKGGKYMQAVIQYGKIVSWLEMEYGLSEKESKASESFLLAAFLNLAMCYLKLREYTKAVECCDKALGLDSANEKGLYRRGEAQLLMNEFESAKGDFEKVLEVNPQNKAARLQISMCQKKAKEHNERDRRIYANMFKKFAEQDAKEEANKAMGKKTSEGVTNEKGTDSQAMEEEKPEGHV
